Experimental data from paper PMC10997554.
Results are given in words; binding and its absence hold for the method and conditions named. In cells and extracts the contact can be indirect. Some results given as binding are weak or reduced against the parent protein; the word gives no strength.

By UniProt entry, the sequences of proteins in these tests, tags left out.
UniProt P51608: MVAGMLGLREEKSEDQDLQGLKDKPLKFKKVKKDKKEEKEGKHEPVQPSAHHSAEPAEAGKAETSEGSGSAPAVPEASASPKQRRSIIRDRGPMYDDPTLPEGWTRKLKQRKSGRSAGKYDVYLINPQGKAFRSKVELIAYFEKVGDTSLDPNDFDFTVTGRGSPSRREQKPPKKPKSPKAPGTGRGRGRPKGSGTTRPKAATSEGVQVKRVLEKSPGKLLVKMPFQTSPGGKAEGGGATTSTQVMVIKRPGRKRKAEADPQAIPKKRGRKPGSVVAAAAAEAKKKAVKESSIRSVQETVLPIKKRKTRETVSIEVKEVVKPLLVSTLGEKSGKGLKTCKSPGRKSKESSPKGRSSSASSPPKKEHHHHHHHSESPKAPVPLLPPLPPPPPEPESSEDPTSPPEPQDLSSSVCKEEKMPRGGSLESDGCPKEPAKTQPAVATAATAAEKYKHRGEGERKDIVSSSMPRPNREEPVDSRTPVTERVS
UniProt Q13619: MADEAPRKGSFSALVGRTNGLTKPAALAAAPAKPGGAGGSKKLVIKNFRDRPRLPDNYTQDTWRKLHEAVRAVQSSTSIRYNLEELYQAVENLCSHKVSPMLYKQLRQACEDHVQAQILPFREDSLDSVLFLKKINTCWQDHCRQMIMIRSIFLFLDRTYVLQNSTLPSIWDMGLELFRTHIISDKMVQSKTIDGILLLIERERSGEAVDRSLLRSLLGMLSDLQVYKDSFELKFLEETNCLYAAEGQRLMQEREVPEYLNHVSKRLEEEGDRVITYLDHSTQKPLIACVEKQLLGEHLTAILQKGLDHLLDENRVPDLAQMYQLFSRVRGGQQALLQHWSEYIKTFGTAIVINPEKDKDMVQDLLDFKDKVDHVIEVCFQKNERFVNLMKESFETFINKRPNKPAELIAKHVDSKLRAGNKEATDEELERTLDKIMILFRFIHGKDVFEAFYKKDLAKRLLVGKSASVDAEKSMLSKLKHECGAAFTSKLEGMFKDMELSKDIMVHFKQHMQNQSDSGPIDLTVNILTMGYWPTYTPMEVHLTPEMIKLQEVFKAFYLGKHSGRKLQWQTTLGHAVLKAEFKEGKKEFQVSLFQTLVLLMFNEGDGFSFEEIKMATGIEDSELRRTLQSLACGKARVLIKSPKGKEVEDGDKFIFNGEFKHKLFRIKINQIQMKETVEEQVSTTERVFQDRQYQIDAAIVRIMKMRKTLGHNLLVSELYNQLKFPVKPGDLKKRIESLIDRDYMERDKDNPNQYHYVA
UniProt Q16531: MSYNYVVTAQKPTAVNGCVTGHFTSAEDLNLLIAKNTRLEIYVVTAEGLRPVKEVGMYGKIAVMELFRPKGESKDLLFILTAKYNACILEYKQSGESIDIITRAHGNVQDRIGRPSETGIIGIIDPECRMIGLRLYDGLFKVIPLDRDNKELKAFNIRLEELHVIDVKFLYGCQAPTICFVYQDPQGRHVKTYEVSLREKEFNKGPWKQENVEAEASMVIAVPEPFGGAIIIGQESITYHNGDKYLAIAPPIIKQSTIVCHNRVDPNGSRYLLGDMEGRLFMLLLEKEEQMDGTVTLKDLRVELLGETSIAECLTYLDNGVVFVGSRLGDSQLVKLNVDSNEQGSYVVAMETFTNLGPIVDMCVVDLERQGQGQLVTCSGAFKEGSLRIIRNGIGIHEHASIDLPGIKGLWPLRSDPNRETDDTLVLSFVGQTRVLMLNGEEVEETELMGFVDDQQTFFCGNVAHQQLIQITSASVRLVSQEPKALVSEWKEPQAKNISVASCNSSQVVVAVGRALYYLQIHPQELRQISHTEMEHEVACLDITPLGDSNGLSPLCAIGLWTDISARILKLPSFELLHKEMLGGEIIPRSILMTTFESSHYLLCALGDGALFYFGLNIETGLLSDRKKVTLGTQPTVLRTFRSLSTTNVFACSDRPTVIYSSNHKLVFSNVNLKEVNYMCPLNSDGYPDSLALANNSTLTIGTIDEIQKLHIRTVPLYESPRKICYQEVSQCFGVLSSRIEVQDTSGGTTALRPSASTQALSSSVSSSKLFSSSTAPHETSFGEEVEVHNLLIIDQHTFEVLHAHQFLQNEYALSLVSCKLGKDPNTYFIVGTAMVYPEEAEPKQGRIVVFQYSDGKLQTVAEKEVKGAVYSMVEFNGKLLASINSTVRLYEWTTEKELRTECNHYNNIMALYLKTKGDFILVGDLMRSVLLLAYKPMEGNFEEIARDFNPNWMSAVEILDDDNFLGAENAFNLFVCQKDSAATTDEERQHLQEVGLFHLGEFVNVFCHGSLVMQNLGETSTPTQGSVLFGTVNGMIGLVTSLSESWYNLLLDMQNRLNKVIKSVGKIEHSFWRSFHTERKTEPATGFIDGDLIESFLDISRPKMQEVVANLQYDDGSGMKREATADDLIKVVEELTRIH

Target: methyl-CpG-binding protein 2 (MeCP2) (human) (UniProt P51608)
Experiment: co-IP; HeLa cells, 48 h after transfection; lysis buffer 50 mM Tris-HCl pH 7.5, 150 mM NaCl, 10% glycerol, 0.5% NP-40; anti-FLAG M2 magnetic beads or anti-c-Myc affinity agarose, 4 °C, 4 h; western blot

Row | binding | Substance
1 | binds | Cullin4A (CUL4A) (from UniProt Q13619 1-759)
2 | binds | DNA damage-binding protein-1 (DDB1) (from UniProt Q16531 1-1140)
